# Results taken from the supplement of paper PMC8728848.
# Some of the results follow.
# B1: Actd5 (Actinidia), P84527 (protein)
# chain: ISSCNGPCRDLNDCDGQLICIKGKCNDDPQVGTHICRGTTHSHQPGGCKPSGTLTCRGKSYPTYDCSPPVTSSTPAKLTNNDFSEGGDDGGPSECDESYHNNNERIVALSTGWYNGGSRCGKMIRITASNGKSVSAKVVDECDSRHGCDKEHAGQPPCRNNIVDGSNAVWSALGLDKNVGVVDITWSMA
# Columns and labels:
# Test in all cases: glycan array binding signal (z-score within array); higher = stronger binding
# Conditions in all cases: glycan notation: IUPAC condensed, linker removed
# [1] = molecular target: GlcNAc(b1-3)Gal(b1-3)GalNAc
# Procedure, shortened: (§1)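 Negative Z-scores can be read as non-binding. The Z-score is calculated within each array and then averaged across arrays of one protein sequence at different concentrations or buffers and across linkers. Arrays, 3228 in all, were curated from the Consortium for Functional Glycomics database and kept only where the protein sequence was available.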
# GlcNAc(b1-3)Gal(b1-4)Glc = molecular target: GlcNAc(b1-3)Gal(b1-4)Glc
# Procedure, shortened: as §1
# [2] = molecular target: GlcNAc(b1-3)Gal(b1-4)GlcNAc
# Procedure, shortened: as §1
# [3] = molecular target: GlcNAc(b1-3)Gal(b1-4)GlcNAc(b1-2)Man(a1-3)[GlcNAc(b1-3)Gal(b1-4)GlcNAc(b1-2)Man(a1-6)]Man(b1-4)GlcNAc(b1-4)GlcNAc
# Procedure, shortened: as §1
# [4] = molecular target: GlcNAc(b1-3)Gal(b1-4)GlcNAc(b1-2)Man(a1-3)[GlcNAc(b1-3)Gal(b1-4)GlcNAc(b1-2)Man(a1-6)]Man(b1-4)GlcNAc(b1-4)[Fuc(a1-6)]GlcNAc
# Procedure, shortened: as §1
# [5] = molecular target: GlcNAc(b1-3)Gal(b1-4)GlcNAc(b1-2)[GlcNAc(b1-3)Gal(b1-4)GlcNAc(b1-6)]Man(a1-6)[GlcNAc(b1-3)Gal(b1-4)GlcNAc(b1-2)Man(a1-3)]Man(b1-4)GlcNAc(b1-4)GlcNAc
# Procedure, shortened: as §1
# [6] = molecular target: GlcNAc(b1-3)Gal(b1-4)GlcNAc(b1-3)Gal(b1-4)GlcNAc
# Procedure, shortened: as §1
# [7] = molecular target: GlcNAc(b1-3)Gal(b1-4)GlcNAc(b1-3)Gal(b1-4)GlcNAc(b1-2)Man(a1-3)[GlcNAc(b1-3)Gal(b1-4)GlcNAc(b1-3)Gal(b1-4)GlcNAc(b1-2)Man(a1-6)]Man(b1-4)GlcNAc(b1-4)GlcNAc
# Procedure, shortened: as §1
# [8] = molecular target: GlcNAc(b1-3)Gal(b1-4)GlcNAc(b1-3)Gal(b1-4)GlcNAc(b1-2)Man(a1-3)[GlcNAc(b1-3)Gal(b1-4)GlcNAc(b1-3)Gal(b1-4)GlcNAc(b1-2)Man(a1-6)]Man(b1-4)GlcNAc(b1-4)[Fuc(a1-6)]GlcNAc
# Procedure, shortened: as §1
# [9] = molecular target: GlcNAc(b1-3)Gal(b1-4)GlcNAc(b1-3)Gal(b1-4)GlcNAc(b1-2)[GlcNAc(b1-3)Gal(b1-4)GlcNAc(b1-3)Gal(b1-4)GlcNAc(b1-6)]Man(a1-6)[GlcNAc(b1-3)Gal(b1-4)GlcNAc(b1-3)Gal(b1-4)GlcNAc(b1-2)Man(a1-3)]Man(b1-4)GlcNAc(b1-4)[Fuc(a1-6)]GlcNAc
# Procedure, shortened: as §1
# [10] = molecular target: GlcNAc(b1-3)Gal(b1-4)GlcNAc(b1-3)Gal(b1-4)GlcNAc(b1-3)Gal(b1-4)GlcNAc(b1-2)Man(a1-3)[GlcNAc(b1-3)Gal(b1-4)GlcNAc(b1-3)Gal(b1-4)GlcNAc(b1-3)Gal(b1-4)GlcNAc(b1-2)Man(a1-6)]Man(b1-4)GlcNAc(b1-4)GlcNAc
# Procedure, shortened: as §1
# [11] = molecular target: GlcNAc(b1-3)Gal(b1-4)GlcNAc(b1-3)Gal(b1-4)GlcNAc(b1-3)Gal(b1-4)GlcNAc(b1-2)Man(a1-3)[GlcNAc(b1-3)Gal(b1-4)GlcNAc(b1-3)Gal(b1-4)GlcNAc(b1-3)Gal(b1-4)GlcNAc(b1-2)Man(a1-6)]Man(b1-4)GlcNAc(b1-4)[Fuc(a1-6)]GlcNAc
# Procedure, shortened: as §1
# [12] = molecular target: GlcNAc(b1-3)Gal(b1-4)GlcNAc(b1-3)Gal(b1-4)GlcNAc(b1-3)Gal(b1-4)GlcNAc(b1-2)[GlcNAc(b1-3)Gal(b1-4)GlcNAc(b1-3)Gal(b1-4)GlcNAc(b1-3)Gal(b1-4)GlcNAc(b1-6)]Man(a1-6)[GlcNAc(b1-3)Gal(b1-4)GlcNAc(b1-3)Gal(b1-4)GlcNAc(b1-3)Gal(b1-4)GlcNAc(b1-2)Man(a1-3)]Man(b1-4)GlcNAc(b1-4)[Fuc(a1-6)]GlcNAc
# Procedure, shortened: as §1
# [13] = molecular target: GlcNAc(b1-3)Gal(b1-4)GlcNAc(b1-3)Gal(b1-4)GlcNAc(b1-3)Gal(b1-4)GlcNAc(b1-3)Gal(b1-4)GlcNAc(b1-2)Man(a1-3)[GlcNAc(b1-3)Gal(b1-4)GlcNAc(b1-3)Gal(b1-4)GlcNAc(b1-3)Gal(b1-4)GlcNAc(b1-3)Gal(b1-4)GlcNAc(b1-2)Man(a1-6)]Man(b1-4)GlcNAc(b1-4)GlcNAc
# Procedure, shortened: as §1
# [14] = molecular target: GlcNAc(b1-3)Gal(b1-4)GlcNAc(b1-3)Gal(b1-4)GlcNAc(b1-3)Gal(b1-4)GlcNAc(b1-3)Gal(b1-4)GlcNAc(b1-2)Man(a1-3)[GlcNAc(b1-3)Gal(b1-4)GlcNAc(b1-3)Gal(b1-4)GlcNAc(b1-3)Gal(b1-4)GlcNAc(b1-3)Gal(b1-4)GlcNAc(b1-2)Man(a1-6)]Man(b1-4)GlcNAc(b1-4)[Fuc(a1-6)]GlcNAc
# Procedure, shortened: as §1
# [15] = molecular target: GlcNAc(b1-3)Gal(b1-4)GlcNAc(b1-3)Gal(b1-4)GlcNAc(b1-3)Gal(b1-4)GlcNAc(b1-3)Gal(b1-4)GlcNAc(b1-2)[GlcNAc(b1-3)Gal(b1-4)GlcNAc(b1-3)Gal(b1-4)GlcNAc(b1-3)Gal(b1-4)GlcNAc(b1-3)Gal(b1-4)GlcNAc(b1-6)]Man(a1-6)[GlcNAc(b1-3)Gal(b1-4)GlcNAc(b1-3)Gal(b1-4)GlcNAc(b1-3)Gal(b1-4)GlcNAc(b1-3)Gal(b1-4)GlcNAc(b1-2)Man(a1-3)]Man(b1-4)GlcNAc(b1-4)[Fuc(a1-6)]GlcNAc
# Procedure, shortened: as §1
# [16] = molecular target: GlcNAc(b1-3)Gal(b1-4)GlcNAc(b1-3)Gal(b1-4)GlcNAc(b1-3)GalNAc
# Procedure, shortened: as §1
# [17] = molecular target: GlcNAc(b1-3)Gal(b1-4)GlcNAc(b1-3)GalNAc
# Procedure, shortened: as §1
# [18] = molecular target: GlcNAc(b1-3)Gal(b1-4)GlcNAc(b1-3)[GlcNAc(b1-3)Gal(b1-4)GlcNAc(b1-3)]GalNAc
# Procedure, shortened: as §1
# [19] = molecular target: GlcNAc(b1-3)Gal(b1-4)GlcNAc(b1-6)[Gal(b1-3)]GalNAc
# Procedure, shortened: as §1
# [20] = molecular target: GlcNAc(b1-3)Gal(b1-4)GlcNAc(b1-6)[GlcNAc(b1-3)Gal(b1-3)]GalNAc
# Procedure, shortened: as §1
# [21] = molecular target: GlcNAc(b1-3)Gal(b1-4)GlcNAc(b1-6)[GlcNAc(b1-3)]Gal(b1-4)GlcNAc
# Procedure, shortened: as §1
# GlcNAc(b1-3)GalNAc = molecular target: GlcNAc(b1-3)GalNAc
# Procedure, shortened: as §1
# GlcNAc(b1-3)Man = molecular target: GlcNAc(b1-3)Man
# Procedure, shortened: as §1
# [22] = molecular target: GlcNAc(b1-3)[GlcNAc(b1-4)][GlcNAc(b1-6)]GlcNAc
# Procedure, shortened: as §1
# [23] = molecular target: GlcNAc(b1-3)[GlcNAc(b1-6)]Gal(b1-4)GlcNAc
# Procedure, shortened: as §1
# [24] = molecular target: GlcNAc(b1-3)[GlcNAc(b1-6)]GalNAc
# Procedure, shortened: as §1
# [25] = molecular target: GlcNAc(b1-4)Gal(b1-4)GlcNAc
# Procedure, shortened: as §1
# GlcNAc(b1-4)GlcNAc = molecular target: GlcNAc(b1-4)GlcNAc
# Procedure, shortened: as §1
# [26] = molecular target: GlcNAc(b1-4)GlcNAc(b1-4)GlcNAc
# Procedure, shortened: as §1
# [27] = molecular target: GlcNAc(b1-4)GlcNAc(b1-4)GlcNAc(b1-4)GlcNAc(b1-4)GlcNAc
# Procedure, shortened: as §1
# [28] = molecular target: GlcNAc(b1-4)GlcNAc(b1-4)GlcNAc(b1-4)GlcNAc(b1-4)GlcNAc(b1-4)GlcNAc
# Procedure, shortened: as §1
# [29] = molecular target: GlcNAc(b1-4)[GlcNAc(b1-6)]GalNAc
# Procedure, shortened: as §1
# [30] = molecular target: GlcNAc(b1-6)Gal(b1-4)GlcNAc
# Procedure, shortened: as §1
# GlcNAc(b1-6)GalNAc = molecular target: GlcNAc(b1-6)GalNAc
# Procedure, shortened: as §1
# [31] = molecular target: GlcNAc6S(b1-3)Gal(b1-4)GlcNAc
# Procedure, shortened: as §1
# Kdn(a2-3)Gal(b1-3)GalNAc = molecular target: Kdn(a2-3)Gal(b1-3)GalNAc
# Procedure, shortened: as §1
# Kdn(a2-3)Gal(b1-3)GlcNAc = molecular target: Kdn(a2-3)Gal(b1-3)GlcNAc
# Procedure, shortened: as §1
# Kdn(a2-3)Gal(b1-4)Glc = molecular target: Kdn(a2-3)Gal(b1-4)Glc
# Procedure, shortened: as §1
# Kdn(a2-3)Gal(b1-4)GlcNAc = molecular target: Kdn(a2-3)Gal(b1-4)GlcNAc
# Procedure, shortened: as §1
# [32] = molecular target: Kdn(a2-3)Gal(b1-4)[Fuc(a1-3)]GlcNAc
# Procedure, shortened: as §1
# Kdn(a2-6)Gal(b1-4)GlcNAc = molecular target: Kdn(a2-6)Gal(b1-4)GlcNAc
# Procedure, shortened: as §1
# [33] = molecular target: Man(a1-2)Man(a1-2)Man(a1-3)Man
# Procedure, shortened: as §1
# [34] = molecular target: Man(a1-2)Man(a1-2)Man(a1-6)[Man(a1-3)]Man
# Procedure, shortened: as §1
# Man(a1-2)Man(a1-3)Man = molecular target: Man(a1-2)Man(a1-3)Man
# Procedure, shortened: as §1
binder,measurement,setting,value
B1,glycan array binding signal (z-score),[1],0.524
same,glycan array binding signal (z-score),GlcNAc(b1-3)Gal(b1-4)Glc,-0.415
same,glycan array binding signal (z-score),[2],-0.615
same,glycan array binding signal (z-score),[3],0.071
same,glycan array binding signal (z-score),[4],1.11
same,glycan array binding signal (z-score),[5],0.752
same,glycan array binding signal (z-score),[6],-1.1
same,glycan array binding signal (z-score),[7],2.72
same,glycan array binding signal (z-score),[8],3.06
same,glycan array binding signal (z-score),[9],0.195
same,glycan array binding signal (z-score),[10],-0.331
same,glycan array binding signal (z-score),[11],1.93
same,glycan array binding signal (z-score),[12],1.27
same,glycan array binding signal (z-score),[13],1.55
same,glycan array binding signal (z-score),[14],0.076
same,glycan array binding signal (z-score),[15],1.72
same,glycan array binding signal (z-score),[16],-0.061
same,glycan array binding signal (z-score),[17],0.584
same,glycan array binding signal (z-score),[18],0.021
same,glycan array binding signal (z-score),[19],-0.776
same,glycan array binding signal (z-score),[20],-0.066
same,glycan array binding signal (z-score),[21],0.458
same,glycan array binding signal (z-score),GlcNAc(b1-3)GalNAc,-0.432
same,glycan array binding signal (z-score),GlcNAc(b1-3)Man,-0.084
same,glycan array binding signal (z-score),[22],-0.974
same,glycan array binding signal (z-score),[23],-0.695
same,glycan array binding signal (z-score),[24],-0.801
same,glycan array binding signal (z-score),[25],-0.582
same,glycan array binding signal (z-score),GlcNAc(b1-4)GlcNAc,-0.331
same,glycan array binding signal (z-score),[26],-0.482
same,glycan array binding signal (z-score),[27],-0.512
same,glycan array binding signal (z-score),[28],-0.624
same,glycan array binding signal (z-score),[29],-0.29
same,glycan array binding signal (z-score),[30],-0.262
same,glycan array binding signal (z-score),GlcNAc(b1-6)GalNAc,-0.151
same,glycan array binding signal (z-score),[31],0.995
same,glycan array binding signal (z-score),Kdn(a2-3)Gal(b1-3)GalNAc,0.076
same,glycan array binding signal (z-score),Kdn(a2-3)Gal(b1-3)GlcNAc,-0.534
same,glycan array binding signal (z-score),Kdn(a2-3)Gal(b1-4)Glc,0.304
same,glycan array binding signal (z-score),Kdn(a2-3)Gal(b1-4)GlcNAc,0.505
same,glycan array binding signal (z-score),[32],0.492
same,glycan array binding signal (z-score),Kdn(a2-6)Gal(b1-4)GlcNAc,0.862
same,glycan array binding signal (z-score),[33],0.687
same,glycan array binding signal (z-score),[34],6.66
same,glycan array binding signal (z-score),Man(a1-2)Man(a1-3)Man,-0.452
